Reference: PubChem BioAssay AID1053209 (Peter MacCallum Cancer Centre, 2014)
Shown is one part, drawn at random, of about 1,580 reagents. 207 of them (13%) were called active. 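Rows are single siRNAs; four siRNAs per gene were tested, a gene counting as confirmed only when at least two agree.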 Reagents against one gene are numbered here.

- Screen: 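Knock-downs that sensitise mouse osteosarcoma cells to doxorubicin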 (follow-up of hits)
- System: mouse primary osteosarcoma cells
- Knock-down reagent: single siRNA against mouse genes, 25 nM (text also states 40 nM)
- Timing: about 120 h (48 h before drug, then 72 h with drug)
- Treatment: doxorubicin 100 nM (about IC30-40), added 48 h after transfection, for 72 h
- Measured: 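Viability measured by ATP luminescence with and without doxorubicin, each replicate scaled to non-targeting siRNA NT1, averaged over two replicates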
- Scale: viability with doxorubicin, vs NT1: higher = more viable cells under doxorubicin; viability ratio, doxorubicin over no drug: higher = less sensitisation to doxorubicin; viability without drug, vs NT1: higher = more viable cells without drug
- Rule for the call: 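Counted as active (class LC dox) if viability falls to 0.7 of NT1 or below under doxorubicin but stays within 0.7 to 1.1 without drug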

target gene	siRNA no.	combined effect class	viability with doxorubicin, vs NT1	viability ratio, doxorubicin over no drug	viability without drug, vs NT1	outcome
Snrpd3 (small nuclear ribonucleoprotein D3)	1	low viability only with doxorubicin; normal without drug	0.62	0.7	0.88	active
Snrpd3 (small nuclear ribonucleoprotein D3)	2	low viability with and without drug	0.16	0.26	0.62	inactive
Snrpd3 (small nuclear ribonucleoprotein D3)	3	low viability with and without drug	0.1	0.34	0.29	inactive
Snrpd3 (small nuclear ribonucleoprotein D3)	4	low viability with and without drug	0.15	0.29	0.52	inactive
Nat10 (N-acetyltransferase 10)	1	normal viability with and without drug	0.94	1	0.94	inactive
Nat10 (N-acetyltransferase 10)	2	normal viability with and without drug	1.03	0.98	1.05	inactive
Nat10 (N-acetyltransferase 10)	3	low viability only with doxorubicin; normal without drug	0.68	0.77	0.88	active
Nat10 (N-acetyltransferase 10)	4	normal viability with and without drug	0.82	0.98	0.84	inactive
Bad (BCL2-associated agonist of cell death)	1	normal viability with and without drug	1	0.96	1.04	inactive
Bad (BCL2-associated agonist of cell death)	2	normal viability with and without drug	1.06	1	1.06	inactive
Bad (BCL2-associated agonist of cell death)	3	normal viability with and without drug	0.99	0.99	1	inactive
Bad (BCL2-associated agonist of cell death)	4	normal viability with and without drug	0.82	0.9	0.91	inactive
Eid3 (EP300 interacting inhibitor of differentiation 3)	1	normal viability with and without drug	0.81	1.09	0.74	inactive
Eid3 (EP300 interacting inhibitor of differentiation 3)	2	low viability only with doxorubicin; normal without drug	0.7	0.83	0.84	active
Eid3 (EP300 interacting inhibitor of differentiation 3)	3	low viability only without drug	0.74	1.09	0.68	inactive
Eid3 (EP300 interacting inhibitor of differentiation 3)	4	high viability only with doxorubicin	1.12	1.08	1.04	inactive
Mal	1	normal viability with and without drug	1.03	0.97	1.06	inactive
Mal	2	normal viability with and without drug	0.9	0.87	1.04	inactive
Mal	3	normal viability with and without drug	0.98	0.96	1.02	inactive
Mal	4	normal viability with and without drug	0.9	0.94	0.96	inactive
Pcdhb11 (protocadherin beta 11)	1	low viability only with doxorubicin; normal without drug	0.42	0.55	0.76	active
Pcdhb11 (protocadherin beta 11)	2	high viability only without drug	1.08	0.96	1.12	inactive
Pcdhb11 (protocadherin beta 11)	3	low viability only with doxorubicin; normal without drug	0.7	0.8	0.88	active
Pcdhb11 (protocadherin beta 11)	4	normal viability with and without drug	1.02	1	1.02	inactive
Asb17 (ankyrin repeat and SOCS box-containing 17)	1	normal viability with and without drug	1.02	1.01	1.01	inactive
Asb17 (ankyrin repeat and SOCS box-containing 17)	2	normal viability with and without drug	0.87	0.97	0.9	inactive
Asb17 (ankyrin repeat and SOCS box-containing 17)	3	normal viability with and without drug	1.08	1.06	1.02	inactive
Asb17 (ankyrin repeat and SOCS box-containing 17)	4	normal viability with and without drug	1.04	0.98	1.06	inactive
Thoc7 (THO complex 7)	1	normal viability with and without drug	1.02	0.98	1.04	inactive
Thoc7 (THO complex 7)	2	low viability only with doxorubicin; normal without drug	0.67	0.74	0.91	active
Thoc7 (THO complex 7)	3	normal viability with and without drug	0.83	0.88	0.94	inactive
Thoc7 (THO complex 7)	4	normal viability with and without drug	1.06	1.14	0.93	inactive
Rps21 (ribosomal protein S21)	1	low viability only with doxorubicin; normal without drug	0.62	0.75	0.83	active
Rps21 (ribosomal protein S21)	2	low viability with and without drug	0.32	0.5	0.64	inactive
Rps21 (ribosomal protein S21)	3	normal viability with and without drug	1.02	1.05	0.97	inactive
Rps21 (ribosomal protein S21)	4	low viability with and without drug	0.2	0.53	0.38	inactive
Lrfn1	1	normal viability with and without drug	1.06	1.07	0.99	inactive
Lrfn1	2	normal viability with and without drug	1	1.04	0.96	inactive
Lrfn1	3	normal viability with and without drug	0.8	0.8	1	inactive
Lrfn1	4	normal viability with and without drug	0.96	0.93	1.03	inactive
Iscu (iron-sulfur cluster assembly enzyme)	1	low viability with and without drug	0.22	0.49	0.45	inactive
Iscu (iron-sulfur cluster assembly enzyme)	2	low viability with and without drug	0.45	0.65	0.69	inactive
Iscu (iron-sulfur cluster assembly enzyme)	3	low viability with and without drug	0.38	1	0.38	inactive
Iscu (iron-sulfur cluster assembly enzyme)	4	low viability with and without drug	0.28	0.47	0.6	inactive
Tsc2 (TSC complex subunit 2)	1	normal viability with and without drug	0.96	0.96	1	inactive
Tsc2 (TSC complex subunit 2)	2	normal viability with and without drug	1	1.05	0.95	inactive
Tsc2 (TSC complex subunit 2)	3	normal viability with and without drug	0.8	0.92	0.87	inactive
Tsc2 (TSC complex subunit 2)	4	high viability only with doxorubicin	1.1	1.2	0.92	inactive
Prxl2c (peroxiredoxin like 2C)	1	normal viability with and without drug	0.88	0.97	0.91	inactive
Prxl2c (peroxiredoxin like 2C)	2	normal viability with and without drug	0.98	0.94	1.04	inactive
Prxl2c (peroxiredoxin like 2C)	3	high viability only with doxorubicin	1.12	1.03	1.09	inactive
Prxl2c (peroxiredoxin like 2C)	4	low viability with and without drug	0.13	0.26	0.5	inactive
Psmb2 (proteasome (prosome, macropain) subunit, beta type 2)	1	low viability with and without drug	0.13	0.41	0.32	inactive
Psmb2 (proteasome (prosome, macropain) subunit, beta type 2)	2	normal viability with and without drug	0.8	0.91	0.88	inactive
Psmb2 (proteasome (prosome, macropain) subunit, beta type 2)	3	low viability with and without drug	0.35	0.54	0.65	inactive
Psmb2 (proteasome (prosome, macropain) subunit, beta type 2)	4	normal viability with and without drug	0.92	1.05	0.88	inactive
Egln3 (egl-9 family hypoxia-inducible factor 3)	1	high viability only with doxorubicin	1.11	1.11	1	inactive
Egln3 (egl-9 family hypoxia-inducible factor 3)	2	low viability only with doxorubicin; normal without drug	0.7	0.81	0.86	active
Egln3 (egl-9 family hypoxia-inducible factor 3)	3	normal viability with and without drug	0.98	1.07	0.92	inactive
Egln3 (egl-9 family hypoxia-inducible factor 3)	4	normal viability with and without drug	1	1.04	0.96	inactive
